According to PubChem BioAssay AID186 (DTP/NCI, 2004):
The mice bore no tumour; each value counts animals alive of those treated. Survivors were counted at the toxicity check, usually on the fifth day, unless a day is given; later deaths do not show. Schedules are NCI's codes, read here as Q, the interval in days (D) or hours (H), X, the number of doses.

System: B6D2F1 mice, nontumored toxicity test, survival
Experiment: NCI In Vivo Anticancer Drug Screen. Data for tumor model Nontumored Animals (Toxicity Test) in B6D2F1 (BDF1) mice
[1] = dose: 4.0 mg/kg/injection, schedule: Q01DX009 (ip), vehicle: saline
[2] = dose: 8.0 mg/kg/injection, schedule: Q01DX009 (ip), vehicle: saline

N[C@H](C(=O)O)[C@H]1ON=C(Cl)[C@@H]1O
survivor count (dose: 3.12 mg/kg/injection, schedule: Q01DX009 (ip), vehicle: saline): 8 of 8
survivor count [1]: 8 of 8
survivor count (dose: 4.0 mg/kg/injection, schedule: Q01DX009 (ip), vehicle: saline + alcohol): 8 of 8
survivor count (dose: 6.25 mg/kg/injection, schedule: Q01DX009 (ip), vehicle: saline): 8 of 8
survivor count (dose: 6.25 mg/kg/injection, schedule: Q03HX008 (ip), vehicle: saline): 8 of 8
survivor count (dose: 6.25 mg/kg/injection, schedule: Q03HX016 (ip), vehicle: saline): 8 of 8
survivor count (dose: 6.25 mg/kg/injection, schedule: Q03HX024 (ip), vehicle: saline): 8 of 8
survivor count [2]: 8 of 8
survivor count (dose: 8.0 mg/kg/injection, schedule: Q01DX009 (ip), vehicle: saline + alcohol): 8 of 8
survivor count (dose: 12.5 mg/kg/injection, schedule: Q01DX009 (ip), vehicle: saline): 8 of 8
survivor count (dose: 12.5 mg/kg/injection, schedule: Q03HX008 (ip), vehicle: saline): 8 of 8
survivor count (dose: 12.5 mg/kg/injection, schedule: Q03HX016 (ip), vehicle: saline): 8 of 8
survivor count (dose: 12.5 mg/kg/injection, schedule: Q03HX024 (ip), vehicle: saline): 8 of 8
survivor count (dose: 16.0 mg/kg/injection, schedule: Q01DX009 (ip), vehicle: saline): 8 of 8
survivor count (dose: 16.0 mg/kg/injection, schedule: Q01DX009 (ip), vehicle: saline + alcohol): 8 of 8
survivor count (dose: 25.0 mg/kg/injection, schedule: Q01DX001 (ip), vehicle: saline): 8 of 8
survivor count (dose: 25.0 mg/kg/injection, schedule: Q01DX009 (ip), vehicle: saline): 8 of 8
survivor count (dose: 25.0 mg/kg/injection, schedule: Q03HX008 (ip), vehicle: saline): 8 of 8
survivor count (dose: 25.0 mg/kg/injection, schedule: Q03HX016 (ip), vehicle: saline): 8 of 8
survivor count (dose: 25.0 mg/kg/injection, schedule: Q03HX024 (ip), vehicle: saline): 8 of 8
survivor count (dose: 25.0 mg/kg/injection, schedule: Q04DX003 (ip), vehicle: saline): 8 of 8
survivor count (dose: 25.0 mg/kg/injection, schedule: Q08DX002 (ip), vehicle: saline): 8 of 8
survivor count (dose: 32.0 mg/kg/injection, schedule: Q01DX009 (ip), vehicle: saline): 8 of 8
survivor count (dose: 32.0 mg/kg/injection, schedule: Q01DX009 (ip), vehicle: saline + alcohol): 8 of 8
survivor count (dose: 50.0 mg/kg/injection, schedule: Q01DX001 (ip), vehicle: saline): 8 of 8
survivor count (dose: 50.0 mg/kg/injection, schedule: Q01DX009 (ip), vehicle: saline): 8 of 8
survivor count (dose: 50.0 mg/kg/injection, schedule: Q03HX008 (ip), vehicle: saline): 8 of 8
survivor count (dose: 50.0 mg/kg/injection, schedule: Q03HX016 (ip), vehicle: saline): 8 of 8
survivor count (dose: 50.0 mg/kg/injection, schedule: Q03HX024 (ip), vehicle: saline): 8 of 8
survivor count (dose: 50.0 mg/kg/injection, schedule: Q04DX003 (ip), vehicle: saline): 8 of 8
survivor count (dose: 50.0 mg/kg/injection, schedule: Q08DX002 (ip), vehicle: saline): 8 of 8
survivor count (dose: 64.0 mg/kg/injection, schedule: Q01DX009 (ip), vehicle: saline): 8 of 8
survivor count (dose: 64.0 mg/kg/injection, schedule: Q01DX009 (ip), vehicle: saline + alcohol): 8 of 8
survivor count (dose: 100.0 mg/kg/injection, schedule: Q01DX001 (ip), vehicle: saline): 8 of 8
survivor count (dose: 100.0 mg/kg/injection, schedule: Q01DX009 (ip), vehicle: saline): 8 of 8
survivor count (dose: 100.0 mg/kg/injection, schedule: Q03HX008 (ip), vehicle: saline): 8 of 8
survivor count (dose: 100.0 mg/kg/injection, schedule: Q03HX016 (ip), vehicle: saline): 8 of 8
survivor count (dose: 100.0 mg/kg/injection, schedule: Q03HX024 (ip), vehicle: saline): 8 of 8
survivor count (dose: 100.0 mg/kg/injection, schedule: Q04DX003 (ip), vehicle: saline): 8 of 8
survivor count (dose: 100.0 mg/kg/injection, schedule: Q08DX002 (ip), vehicle: saline): 8 of 8
survivor count (dose: 128.0 mg/kg/injection, schedule: Q01DX009 (ip), vehicle: saline): 8 of 8
survivor count (dose: 128.0 mg/kg/injection, schedule: Q01DX009 (ip), vehicle: saline + alcohol): 8 of 8
survivor count (dose: 200.0 mg/kg/injection, schedule: Q01DX001 (ip), vehicle: saline): 8 of 8
survivor count (dose: 200.0 mg/kg/injection, schedule: Q01DX009 (ip), vehicle: saline): 8 of 8
survivor count (dose: 200.0 mg/kg/injection, schedule: Q04DX003 (ip), vehicle: saline): 8 of 8
survivor count (dose: 200.0 mg/kg/injection, schedule: Q08DX002 (ip), vehicle: saline): 8 of 8
survivor count (dose: 256.0 mg/kg/injection, schedule: Q01DX009 (ip), vehicle: saline): 8 of 8
survivor count (dose: 256.0 mg/kg/injection, schedule: Q01DX009 (ip), vehicle: saline + alcohol): 8 of 8
survivor count (dose: 400.0 mg/kg/injection, schedule: Q01DX001 (ip), vehicle: saline): 8 of 8
survivor count (dose: 400.0 mg/kg/injection, schedule: Q04DX003 (ip), vehicle: saline): 8 of 8
survivor count (dose: 400.0 mg/kg/injection, schedule: Q08DX002 (ip), vehicle: saline): 8 of 8
survivor count (dose: 512.0 mg/kg/injection, schedule: Q01DX009 (ip), vehicle: saline): 8 of 8
survivor count (dose: 512.0 mg/kg/injection, schedule: Q01DX009 (ip), vehicle: saline + alcohol): 8 of 8

N/C(=N\O)c1cn(C2OC(CO)C(O)C2O)c2ncnc(N)c12 (configuration not stated)
survivor count (dose: 0.25 mg/kg/injection, schedule: Q03HX024 (ip), vehicle: saline): 8 of 8
survivor count (dose: 0.5 mg/kg/injection, schedule: Q01DX005 (ip), vehicle: saline): 8 of 8
survivor count (dose: 0.5 mg/kg/injection, schedule: Q01DX009 (ip), vehicle: saline): 8 of 8
survivor count (dose: 0.5 mg/kg/injection, schedule: Q03HX008 (ip), vehicle: saline): 8 of 8
survivor count (dose: 0.5 mg/kg/injection, schedule: Q03HX016 (ip), vehicle: saline): 8 of 8
survivor count (dose: 0.5 mg/kg/injection, schedule: Q03HX024 (ip), vehicle: saline): 8 of 8
survivor count (dose: 1.0 mg/kg/injection, schedule: Q01DX005 (ip), vehicle: saline): 8 of 8
survivor count (dose: 1.0 mg/kg/injection, schedule: Q01DX009 (ip), vehicle: saline): 8 of 8
survivor count (dose: 1.0 mg/kg/injection, schedule: Q03HX008 (ip), vehicle: saline): 8 of 8
survivor count (dose: 1.0 mg/kg/injection, schedule: Q03HX016 (ip), vehicle: saline): 8 of 8
survivor count (dose: 1.0 mg/kg/injection, schedule: Q03HX024 (ip), vehicle: saline): 8 of 8
survivor count (dose: 2.0 mg/kg/injection, schedule: Q01DX005 (ip), vehicle: saline): 8 of 8
survivor count (dose: 2.0 mg/kg/injection, schedule: Q01DX009 (ip), vehicle: saline): 8 of 8
survivor count (dose: 2.0 mg/kg/injection, schedule: Q03HX008 (ip), vehicle: saline): 8 of 8
survivor count (dose: 2.0 mg/kg/injection, schedule: Q03HX016 (ip), vehicle: saline): 8 of 8
survivor count (dose: 2.0 mg/kg/injection, schedule: Q03HX024 (ip), vehicle: saline): 8 of 8
survivor count (dose: 2.0 mg/kg/injection, schedule: Q04DX003 (ip), vehicle: saline): 8 of 8
survivor count (dose: 4.0 mg/kg/injection, schedule: Q01DX001 (ip), vehicle: saline): 8 of 8
survivor count (dose: 4.0 mg/kg/injection, schedule: Q01DX005 (ip), vehicle: saline): 8 of 8
survivor count [1]: 8 of 8
survivor count (dose: 4.0 mg/kg/injection, schedule: Q01DX009 (oral), vehicle: saline): 8 of 8
survivor count (dose: 4.0 mg/kg/injection, schedule: Q03HX008 (ip), vehicle: saline): 8 of 8
survivor count (dose: 4.0 mg/kg/injection, schedule: Q03HX016 (ip), vehicle: saline): 8 of 8
survivor count (dose: 4.0 mg/kg/injection, schedule: Q03HX024 (ip), vehicle: saline): 6 of 8
survivor count (dose: 4.0 mg/kg/injection, schedule: Q04DX003 (ip), vehicle: saline): 8 of 8
survivor count (dose: 4.0 mg/kg/injection, schedule: Q08DX002 (ip), vehicle: saline): 8 of 8
survivor count (dose: 8.0 mg/kg/injection, schedule: Q01DX001 (ip), vehicle: saline): 8 of 8
survivor count (dose: 8.0 mg/kg/injection, schedule: Q01DX005 (ip), vehicle: saline): 8 of 8
survivor count [2]: 8 of 8
survivor count (dose: 8.0 mg/kg/injection, schedule: Q01DX009 (oral), vehicle: saline): 8 of 8
survivor count (dose: 8.0 mg/kg/injection, schedule: Q04DX003 (ip), vehicle: saline): 8 of 8
survivor count (dose: 8.0 mg/kg/injection, schedule: Q08DX002 (ip), vehicle: saline): 8 of 8
survivor count (dose: 16.0 mg/kg/injection, schedule: Q01DX001 (ip), vehicle: saline): 8 of 8
survivor count (dose: 16.0 mg/kg/injection, schedule: Q01DX001 (oral), vehicle: saline): 8 of 8
survivor count (dose: 16.0 mg/kg/injection, schedule: Q01DX009 (oral), vehicle: saline): 8 of 8
survivor count (dose: 16.0 mg/kg/injection, schedule: Q04DX003 (ip), vehicle: saline): 8 of 8
survivor count (dose: 16.0 mg/kg/injection, schedule: Q08DX002 (ip), vehicle: saline): 8 of 8
survivor count (dose: 32.0 mg/kg/injection, schedule: Q01DX001 (ip), vehicle: saline): 8 of 8
survivor count (dose: 32.0 mg/kg/injection, schedule: Q01DX001 (oral), vehicle: saline): 8 of 8
survivor count (dose: 32.0 mg/kg/injection, schedule: Q01DX009 (oral), vehicle: saline): 8 of 8
survivor count (dose: 32.0 mg/kg/injection, schedule: Q04DX003 (ip), vehicle: saline): 7 of 8
survivor count (dose: 32.0 mg/kg/injection, schedule: Q08DX002 (ip), vehicle: saline): 8 of 8
survivor count (dose: 64.0 mg/kg/injection, schedule: Q01DX001 (oral), vehicle: saline): 8 of 8
survivor count (dose: 128.0 mg/kg/injection, schedule: Q01DX001 (oral), vehicle: saline): 8 of 8
